# Source: PMC4829867
# Amino acid sequences for entries named in this document (tags omitted). A change or cut given only in a name is not applied to a line headed by its entry.
# UniProt P02533: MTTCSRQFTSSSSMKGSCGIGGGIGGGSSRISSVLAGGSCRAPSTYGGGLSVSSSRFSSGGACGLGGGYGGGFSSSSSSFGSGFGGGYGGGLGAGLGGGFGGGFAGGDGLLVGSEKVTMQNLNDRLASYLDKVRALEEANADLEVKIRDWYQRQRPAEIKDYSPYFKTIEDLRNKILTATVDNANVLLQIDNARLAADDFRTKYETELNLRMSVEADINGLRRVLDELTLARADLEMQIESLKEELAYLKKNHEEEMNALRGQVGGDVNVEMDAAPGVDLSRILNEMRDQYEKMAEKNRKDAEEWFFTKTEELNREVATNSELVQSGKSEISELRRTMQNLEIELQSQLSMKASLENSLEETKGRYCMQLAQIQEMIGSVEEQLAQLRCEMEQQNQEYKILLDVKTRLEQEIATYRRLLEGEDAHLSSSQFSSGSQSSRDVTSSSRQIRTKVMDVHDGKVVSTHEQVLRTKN
# UniProt P08670: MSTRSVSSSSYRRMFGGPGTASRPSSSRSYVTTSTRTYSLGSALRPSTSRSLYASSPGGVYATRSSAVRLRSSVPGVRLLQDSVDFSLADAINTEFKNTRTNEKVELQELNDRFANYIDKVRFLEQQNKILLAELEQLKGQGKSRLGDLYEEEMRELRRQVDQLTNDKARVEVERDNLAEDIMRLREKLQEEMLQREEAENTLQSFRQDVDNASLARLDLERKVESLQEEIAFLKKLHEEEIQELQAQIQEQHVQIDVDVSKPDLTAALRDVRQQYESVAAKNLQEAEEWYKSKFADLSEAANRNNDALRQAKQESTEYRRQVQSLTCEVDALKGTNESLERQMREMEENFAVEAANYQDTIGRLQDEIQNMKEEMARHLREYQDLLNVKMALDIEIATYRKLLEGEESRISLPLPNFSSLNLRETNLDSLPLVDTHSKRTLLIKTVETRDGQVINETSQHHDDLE
# Results are given in words; binding and its absence hold for the method and conditions named. Binding seen in cells or lysates may run through a third protein. Some results given as binding are weak or reduced against the parent protein; the word gives no strength.
# Molecular target: keratin-KRT14 (human (endogenous in human epidermal keratinocytes)) (UniProt P02533)
# Experiment: co-IP; extracts of human epidermal keratinocytes transfected with wild type or mutant Vim, 48 h post-transfection; immunoprecipitation with the mAb against KRT14; immunoblot for Vim
row,Substance,binding
1,V-E407G (from UniProt P08670 1-466),binds
2,V-E405G-E407G (from UniProt P08670 1-466),binds
3,V-E405G (from UniProt P08670 1-466),binds
